Measurements reported in PubChem BioAssay AID1259280 (Sanger Institute, 2017)

Aim: 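Essential kinases and drug-combination synergies in SNU407 cells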 (primary screen)
Cells: human SNU407 colorectal cancer cells
Reagent: siRNA pool against human genes
Treatment: anchor drugs BYL719 at 1 µM, cetuximab at 5 µg/ml or trametinib at 10 nM, or DMSO vehicle alone; exposure time not given
Measured: 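Viability relative to non-targeting control siRNA, expressed as robust z-score, plus a synergy score for each of the three anchor drugs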
Direction: viability z-score, no drug and viability vs control, no drug: higher = more cells survive the knock-down; synergy with trametinib and synergy with BYL719 and synergy with cetuximab: higher = stronger synergy of knock-down with drug
Call rule: 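Essential calls require a no-drug robust viability z-score under -3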
Meaning of the calls: active = essential (knock-down alone kills cells); inactive = no change without drug
This is a random part of 794 deposited reagents. Of all reagents, 12 (1.5%) are marked active. 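Calls cover knock-down without drug only; synergy scores stand apart, values above 0.15 being treated as synergy.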 Viability is capped at 1. Not given: the amount of reagent, the time to read-out.

no.	gene	PubChem SID	viability z-score, no drug	viability vs control, no drug (fraction of control)	synergy with trametinib	synergy with BYL719	synergy with cetuximab	outcome
1	CDK7 (cyclin dependent kinase 7)	SID152150057	0.901	1	0.0433	0.113	-0.0225	inactive
2	NR4A2 (nuclear receptor subfamily 4 group A member 2)	SID134309878	-1.65	0.805	-0.036	0.00442	-0.091	inactive
3	PAK2 (p21 (RAC1) activated kinase 2)	SID135620709	0.869	0.998	-0.00844	0.035	-0.0399	inactive
4	CLK1 (CDC like kinase 1)	SID152154455	0.901	1	-0.0139	-0.11	-0.0166	inactive
5	CDK15 (cyclin dependent kinase 15)	SID56478852	0.901	1	-0.0418	-0.101	-0.00182	inactive
6	DSTYK (dual serine/threonine and tyrosine protein kinase)	SID152147164	0.623	0.979	-0.0356	0.1	-0.027	inactive
7	PRKY (protein kinase Y-linked (pseudogene))	SID135620861	0.738	0.988	0.0315	0.0935	0.109	inactive
8	PRKAR2A	SID152153424	-0.957	0.858	-0.0811	0.0234	-0.0724	inactive
9	BMX (BMX non-receptor tyrosine kinase)	SID152147462	0.901	1	-0.102	-0.0709	0.0124	inactive
10	PDXK (pyridoxal kinase)	SID56478979	0.901	1	-0.112	-0.0581	0.0922	inactive
11	MYLK2 (myosin light chain kinase 2)	SID56479029	-1.18	0.841	0.0389	-0.000681	0.035	inactive
12	PACSIN1 (protein kinase C and casein kinase substrate in neurons 1)	SID56479194	0.901	1	0.0588	0.0811	0.0376	inactive
13	KSR1 (kinase suppressor of ras 1)	SID152156641	-2.14	0.768	0.0794	0.158	0.00428	inactive
14	MAP3K4 (mitogen-activated protein kinase kinase kinase 4)	SID152151893	0.894	0.999	-0.0544	-0.0154	-0.0104	inactive
15	CREBBP (CREB binding lysine acetyltransferase)	SID152156768	0.901	1	0.094	0.179	0.0869	inactive
16	NUCKS1	SID152150801	0.291	0.953	-0.00818	0.00795	0.00759	inactive
17	STK32A (serine/threonine kinase 32A)	SID152151517	0.901	1	-0.169	-0.0636	-0.0886	inactive
18	WNK4 (WNK lysine deficient protein kinase 4)	SID56478961	0.901	1	-0.0145	0.0207	-0.0322	inactive
19	CAD	SID152152923	0.901	1	-0.0548	-0.152	-0.0886	inactive
20	MAP2K2 (mitogen-activated protein kinase kinase 2)	SID56478689	0.0496	0.935	0.0308	0.03	0.0594	inactive
21	CHEK2 (checkpoint kinase 2)	SID152153325	0.901	1	-0.0711	0.0837	0.0712	inactive
22	RPS6KB2 (ribosomal protein S6 kinase B2)	SID152153683	0.901	1	-0.126	0.018	-0.0875	inactive
23	RPS6KC1 (ribosomal protein S6 kinase C1)	SID135620976	0.539	0.972	-0.116	-0.0775	-0.0883	inactive
24	ERBB4 (erb-b2 receptor tyrosine kinase 4)	SID135620618	-0.977	0.857	-0.0652	0.0331	0.0323	inactive
25	PNCK (pregnancy up-regulated nonubiquitous CaM kinase)	SID152151558	0.194	0.946	0.0504	0.0928	-0.0142	inactive
26	NPR2 (natriuretic peptide receptor 2)	SID152151652	-0.217	0.915	-0.0523	-0.0832	-0.0439	inactive
27	PHKB (phosphorylase kinase regulatory subunit beta)	SID134312707	0.901	1	-0.0915	-0.0148	-0.0175	inactive
28	AK3 (adenylate kinase 3)	SID56479080	0.65	0.981	0.0211	-0.0398	-0.0302	inactive
29	ACVR1B (activin A receptor type 1B)	SID56478918	0.901	1	-0.017	-0.0456	-0.0304	inactive
30	PIK3R3 (phosphoinositide-3-kinase regulatory subunit 3)	SID56479284	-0.0247	0.929	-0.0628	-0.103	-0.103	inactive
31	TK2 (thymidine kinase 2)	SID152153963	0.901	1	0.0398	0.0401	-0.0247	inactive
32	ALDH18A1 (aldehyde dehydrogenase 18 family member A1)	SID152152799	0.823	0.994	0.0107	0.0525	-0.0189	inactive
33	CLSPN (claspin)	SID134310856	-1.06	0.85	0.0753	0.101	0.0921	inactive
34	MAP3K14 (mitogen-activated protein kinase kinase kinase 14)	SID135620705	-0.43	0.898	-0.0108	0.041	0.0443	inactive
35	ALPK1 (alpha kinase 1)	SID152152286	-1.01	0.854	-0.0339	-0.0361	-0.0731	inactive
36	MAST4	SID135625002	0.901	1	-0.0481	0.0434	-0.0357	inactive
37	MERTK (MER proto-oncogene, tyrosine kinase)	SID135620626	0.901	1	-0.0046	0.111	0.0575	inactive
38	LATS2 (large tumor suppressor kinase 2)	SID152149461	0.901	1	0.0277	-0.177	-0.0886	inactive
39	MOK (MOK protein kinase)	SID56478889	0.901	1	-0.0468	0.0873	0.0383	inactive
40	CALM2 (calmodulin 2)	SID134320655	-0.566	0.888	0.0868	0.0278	-0.0253	inactive
41	PRPS1 (phosphoribosyl pyrophosphate synthetase 1)	SID56479145	-0.916	0.861	-0.0693	-0.0983	-0.0532	inactive
42	MAPK15 (mitogen-activated protein kinase 15)	SID152151405	0.901	1	-0.0117	0.0157	0.0825	inactive
43	PSTK (phosphoseryl-tRNA kinase)	SID134320501	0.0745	0.937	-0.0549	-0.0862	-0.0477	inactive
44	TSSK3 (testis specific serine kinase 3)	SID152155438	0.439	0.965	-0.0772	0.0485	0.109	inactive
45	PRKAR1B (protein kinase cAMP-dependent type I regulatory subunit beta)	SID152149404	0.428	0.964	0.0142	0.115	0.1	inactive
46	PCK2 (phosphoenolpyruvate carboxykinase 2, mitochondrial)	SID56479157	0.898	1	-0.0445	-0.00254	-0.0223	inactive
47	PIP5K1A (phosphatidylinositol-4-phosphate 5-kinase type 1 alpha)	SID56478868	-1.28	0.833	-0.125	0.0349	-0.0565	inactive
48	APC (APC regulator of Wnt signaling pathway)	SID152153239	-0.078	0.925	-0.0234	-0.0606	-0.048	inactive
49	NUAK2 (NUAK family kinase 2)	SID56479046	0.473	0.967	-0.0379	0.182	0.0927	inactive
50	CDK4 (cyclin dependent kinase 4)	SID56478598	0.901	1	-0.0926	0.0582	0.051	inactive
51	PRKG2 (protein kinase cGMP-dependent 2)	SID56478832	-0.829	0.868	0.0384	0.027	-0.0543	inactive
52	ROCK2 (Rho associated coiled-coil containing protein kinase 2)	SID135620850	-0.813	0.869	-0.0767	0.0566	0.00924	inactive
53	MAK (male germ cell associated kinase)	SID56478884	-0.152	0.92	-0.089	0.00513	0.0209	inactive
54	RIPK1 (receptor interacting serine/threonine kinase 1)	SID152148235	0.901	1	-0.00193	-0.0725	0.0175	inactive
55	NTRK3 (neurotrophic receptor tyrosine kinase 3)	SID135620627	0.901	1	-0.0521	-0.126	-0.067	inactive
56	MARK1 (microtubule affinity regulating kinase 1)	SID152146970	0.901	1	0.00592	0.0138	0.048	inactive
57	CDK20 (cyclin dependent kinase 20)	SID152152456	0.598	0.977	-0.00804	0.0746	0.0541	inactive
58	PFKFB2 (6-phosphofructo-2-kinase/fructose-2,6-biphosphatase 2)	SID135621246	0.901	1	0.0456	0.0814	0.0775	inactive
59	GK (glycerol kinase)	SID56479100	-0.0678	0.926	-0.125	0.0284	-0.0303	inactive
60	FN3KRP (fructosamine 3 kinase related protein)	SID56479164	-0.283	0.91	-0.00805	0.0414	0.0239	inactive
61	STK24 (serine/threonine kinase 24)	SID135620898	0.647	0.981	0.129	0.0251	0.103	inactive
62	HSPB8 (heat shock protein family B (small) member 8)	SID56478941	0.721	0.986	0.0856	0.0736	-0.0283	inactive
63	DMPK (DM1 protein kinase)	SID135620855	-0.942	0.859	-0.0181	0.024	0.0407	inactive

Laid out differently: results already given
gene,PubChem SID,"viability z-score, no drug","viability vs control, no drug (fraction of control)",synergy with trametinib,synergy with BYL719,synergy with cetuximab,outcome
RPS6KC1 (ribosomal protein S6 kinase C1),SID135620976,0.539,0.972,-0.116,-0.0775,-0.0883,inactive
ERBB4 (erb-b2 receptor tyrosine kinase 4),SID135620618,-0.977,0.857,-0.0652,0.0331,0.0323,inactive
PNCK (pregnancy up-regulated nonubiquitous CaM kinase),SID152151558,0.194,0.946,0.0504,0.0928,-0.0142,inactive
NPR2 (natriuretic peptide receptor 2),SID152151652,-0.217,0.915,-0.0523,-0.0832,-0.0439,inactive
PHKB (phosphorylase kinase regulatory subunit beta),SID134312707,0.901,1,-0.0915,-0.0148,-0.0175,inactive
AK3 (adenylate kinase 3),SID56479080,0.65,0.981,0.0211,-0.0398,-0.0302,inactive
ACVR1B (activin A receptor type 1B),SID56478918,0.901,1,-0.017,-0.0456,-0.0304,inactive
PIK3R3 (phosphoinositide-3-kinase regulatory subunit 3),SID56479284,-0.0247,0.929,-0.0628,-0.103,-0.103,inactive
TK2 (thymidine kinase 2),SID152153963,0.901,1,0.0398,0.0401,-0.0247,inactive
